The record followed here is PMC10517005, “A conserved membrane protein negatively regulates Mce1 complexes in mycobacteria” (Nature Communications, 2023).

By UniProt entry, the sequences of proteins in these tests, tags left out. Where a name states a change or a piece, a line headed by the entry shows the natural chain unless it says otherwise.
UniProt A0QNR1: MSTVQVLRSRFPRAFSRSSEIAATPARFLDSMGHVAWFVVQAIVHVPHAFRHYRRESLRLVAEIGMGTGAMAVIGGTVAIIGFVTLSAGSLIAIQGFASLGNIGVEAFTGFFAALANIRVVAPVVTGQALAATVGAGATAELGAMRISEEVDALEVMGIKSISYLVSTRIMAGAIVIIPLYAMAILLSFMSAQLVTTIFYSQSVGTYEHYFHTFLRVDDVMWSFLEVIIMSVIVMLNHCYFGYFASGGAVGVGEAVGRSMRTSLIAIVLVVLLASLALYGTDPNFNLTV
UniProt A0QNR5: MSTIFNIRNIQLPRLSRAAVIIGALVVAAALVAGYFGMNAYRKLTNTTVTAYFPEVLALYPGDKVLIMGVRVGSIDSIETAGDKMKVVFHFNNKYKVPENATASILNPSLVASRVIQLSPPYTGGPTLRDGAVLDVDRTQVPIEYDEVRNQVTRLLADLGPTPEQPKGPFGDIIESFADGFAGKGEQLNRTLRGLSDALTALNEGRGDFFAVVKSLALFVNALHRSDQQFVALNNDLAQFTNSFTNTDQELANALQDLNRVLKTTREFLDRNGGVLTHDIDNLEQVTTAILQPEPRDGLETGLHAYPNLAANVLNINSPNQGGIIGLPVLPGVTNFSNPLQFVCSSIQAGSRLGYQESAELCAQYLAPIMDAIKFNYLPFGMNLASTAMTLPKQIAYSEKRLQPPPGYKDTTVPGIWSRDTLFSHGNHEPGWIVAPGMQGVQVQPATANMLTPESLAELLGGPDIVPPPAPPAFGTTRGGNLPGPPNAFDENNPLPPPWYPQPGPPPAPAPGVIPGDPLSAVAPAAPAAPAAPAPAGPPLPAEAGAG
UniProt A0QNR0: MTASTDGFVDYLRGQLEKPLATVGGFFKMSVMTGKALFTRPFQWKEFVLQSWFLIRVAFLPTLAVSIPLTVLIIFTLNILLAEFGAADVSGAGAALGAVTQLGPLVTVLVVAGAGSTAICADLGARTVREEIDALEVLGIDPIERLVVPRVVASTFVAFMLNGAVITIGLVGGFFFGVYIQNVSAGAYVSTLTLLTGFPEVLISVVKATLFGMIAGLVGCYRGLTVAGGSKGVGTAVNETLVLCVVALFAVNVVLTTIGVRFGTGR
UniProt A0QNR6: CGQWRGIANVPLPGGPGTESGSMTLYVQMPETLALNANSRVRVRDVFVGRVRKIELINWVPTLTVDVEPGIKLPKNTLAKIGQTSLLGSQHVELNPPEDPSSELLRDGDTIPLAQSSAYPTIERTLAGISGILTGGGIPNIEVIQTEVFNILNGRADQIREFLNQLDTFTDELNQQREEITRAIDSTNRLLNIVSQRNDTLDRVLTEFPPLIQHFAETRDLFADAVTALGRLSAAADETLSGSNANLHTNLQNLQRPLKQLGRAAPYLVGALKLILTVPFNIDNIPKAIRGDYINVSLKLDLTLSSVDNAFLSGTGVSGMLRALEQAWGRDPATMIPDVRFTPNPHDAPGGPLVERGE
UniProt A0QNR2: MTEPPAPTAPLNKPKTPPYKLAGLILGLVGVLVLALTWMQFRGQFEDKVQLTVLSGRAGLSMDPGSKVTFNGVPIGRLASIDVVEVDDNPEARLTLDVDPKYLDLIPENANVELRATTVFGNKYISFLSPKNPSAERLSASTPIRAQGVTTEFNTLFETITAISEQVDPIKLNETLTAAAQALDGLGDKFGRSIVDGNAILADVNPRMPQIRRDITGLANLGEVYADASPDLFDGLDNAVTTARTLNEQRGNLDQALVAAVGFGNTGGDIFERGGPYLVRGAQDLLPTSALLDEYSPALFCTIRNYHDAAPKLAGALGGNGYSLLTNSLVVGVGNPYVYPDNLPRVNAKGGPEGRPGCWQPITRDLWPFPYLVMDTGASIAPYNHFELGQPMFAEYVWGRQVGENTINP
UniProt A0QS64: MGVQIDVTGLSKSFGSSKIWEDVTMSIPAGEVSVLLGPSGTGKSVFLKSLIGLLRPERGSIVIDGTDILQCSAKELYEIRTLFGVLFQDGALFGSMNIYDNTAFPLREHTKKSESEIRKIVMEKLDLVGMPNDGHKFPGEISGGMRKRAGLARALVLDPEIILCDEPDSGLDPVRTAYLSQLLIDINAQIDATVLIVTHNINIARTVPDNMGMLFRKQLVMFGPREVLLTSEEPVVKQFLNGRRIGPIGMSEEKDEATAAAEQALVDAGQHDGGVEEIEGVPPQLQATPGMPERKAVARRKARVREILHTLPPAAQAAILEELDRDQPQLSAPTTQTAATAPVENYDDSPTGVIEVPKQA
UniProt A0R4F8: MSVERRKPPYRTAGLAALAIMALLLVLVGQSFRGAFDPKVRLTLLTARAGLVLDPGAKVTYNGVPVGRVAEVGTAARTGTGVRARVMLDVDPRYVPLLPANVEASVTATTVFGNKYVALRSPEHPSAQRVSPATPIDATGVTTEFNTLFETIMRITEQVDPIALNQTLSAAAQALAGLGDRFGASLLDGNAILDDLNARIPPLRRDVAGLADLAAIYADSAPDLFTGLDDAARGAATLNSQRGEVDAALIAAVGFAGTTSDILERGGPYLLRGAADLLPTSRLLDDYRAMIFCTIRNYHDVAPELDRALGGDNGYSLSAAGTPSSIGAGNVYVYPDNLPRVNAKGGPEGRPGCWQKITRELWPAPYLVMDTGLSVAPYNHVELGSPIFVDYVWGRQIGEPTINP
UniProt A0QNR7: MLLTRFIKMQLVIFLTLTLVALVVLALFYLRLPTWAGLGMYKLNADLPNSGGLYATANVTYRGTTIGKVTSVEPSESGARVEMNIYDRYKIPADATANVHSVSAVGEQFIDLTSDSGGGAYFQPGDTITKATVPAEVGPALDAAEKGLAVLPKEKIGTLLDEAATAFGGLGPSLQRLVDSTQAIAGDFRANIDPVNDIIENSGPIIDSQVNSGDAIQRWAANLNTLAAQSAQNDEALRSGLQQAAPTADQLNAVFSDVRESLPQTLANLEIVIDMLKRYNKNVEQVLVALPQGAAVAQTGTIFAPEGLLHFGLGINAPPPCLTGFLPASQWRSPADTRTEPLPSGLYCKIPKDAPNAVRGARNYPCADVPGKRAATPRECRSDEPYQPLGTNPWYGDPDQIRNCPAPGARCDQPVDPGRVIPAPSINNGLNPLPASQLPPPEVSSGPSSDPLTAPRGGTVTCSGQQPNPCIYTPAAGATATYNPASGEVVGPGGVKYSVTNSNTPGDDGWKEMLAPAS
UniProt A0QNR3: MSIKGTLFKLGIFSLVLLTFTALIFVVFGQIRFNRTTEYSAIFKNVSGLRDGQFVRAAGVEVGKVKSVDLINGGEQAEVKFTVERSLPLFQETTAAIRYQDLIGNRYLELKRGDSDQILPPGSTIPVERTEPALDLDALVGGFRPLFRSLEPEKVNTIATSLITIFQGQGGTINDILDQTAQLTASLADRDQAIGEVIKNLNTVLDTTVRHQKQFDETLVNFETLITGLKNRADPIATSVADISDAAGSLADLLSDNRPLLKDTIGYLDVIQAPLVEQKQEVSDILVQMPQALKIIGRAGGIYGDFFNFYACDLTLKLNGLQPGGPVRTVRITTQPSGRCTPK
UniProt A0QNR4: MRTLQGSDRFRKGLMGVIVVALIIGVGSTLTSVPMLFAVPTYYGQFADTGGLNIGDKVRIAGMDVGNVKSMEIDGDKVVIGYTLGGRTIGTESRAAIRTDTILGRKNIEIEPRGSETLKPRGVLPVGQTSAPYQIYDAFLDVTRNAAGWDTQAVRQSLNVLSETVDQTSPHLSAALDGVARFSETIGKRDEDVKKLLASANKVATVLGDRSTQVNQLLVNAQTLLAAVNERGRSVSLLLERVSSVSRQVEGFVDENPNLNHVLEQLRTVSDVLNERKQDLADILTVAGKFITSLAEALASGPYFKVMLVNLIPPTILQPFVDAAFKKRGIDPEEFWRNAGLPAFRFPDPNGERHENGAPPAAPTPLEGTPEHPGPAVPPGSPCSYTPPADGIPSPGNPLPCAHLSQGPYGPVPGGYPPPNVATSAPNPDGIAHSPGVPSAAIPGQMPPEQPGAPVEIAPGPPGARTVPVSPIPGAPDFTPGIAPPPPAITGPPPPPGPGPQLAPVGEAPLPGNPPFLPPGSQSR

No constants are given. Whether binding was seen depends on the method and setting. Binding seen in cells or lysates may run through a third protein. Here binding means that the protein was enriched with, or labelled near, the bait; the list need not be complete. A no says only that the protein was not detected with the bait.

Sequences and labels used below:
B1: MSMEG_0959 (protein, UniProt A0QR24 1-164)
chain: MSGVPDASGAAPAGEVLFYEQGASWAWLLSGPIAGVGMAILQRTGGYGYDLWIPLIFLVLVSGFIAIQIKAARIHTSVELTRETLRQGTEIISIDEIVDIYPEASGSEVPKWQSARALGELTGVPRGRTGIGLKLTGKRVAQAWARRHRTLRAALQQLVEERTP
B2: MSMEG_6540 (protein, UniProt A0R6G4 1-413)
chain: MASSAALQDRLGQRFKHWRYDPPYKTACAGMVILVVTVLVLTWMQFRGDFEDKAEITLFASRSGLSMDPGSKVTFNGVPIGRLKGVDVVEVDDNPEARLTLDIDPKYLDLIPANAVAELRATTVFGNKYVSFTAPEHPSAERLSASTPIRAQGVTTEFNTLFETITAISEQVDPIKLNETLTAAAQALDGLGDKFGRSIVDGNAILADVNPRMPQIRRDITGLANLGEVYADAAPDLFDGLDNAVTTARTLNDQRHDLDQALVAAVGFGNTGGDIFERGGPYLVRGNQDLLPVAEMFDRNSPALYCTIKNYHDAAPKFAAQTNNGYSFQLNDTFVGAGNPYVYPDNLPRVNARGGPEGRPGCWQPITHDLWPAPYLVLDTGASIAPYNHFELGQPMFIEYVWGRQVGENTINP

The target in the first assay is His-tagged YrbE1A (M. smegmatis). Description: affinity purification with mass spectrometry; His-tagged YrbE1A or YrbE1B expressed in M. smegmatis Δmce1R; 1% DDM extract of total membranes on TALON resin, washes with 300 mM NaCl and 0.05% DDM, pH 8.0; SDS-PAGE bands and gel sections identified by LC-MS/MS (Fig. 1c).
For the molecule B1, the binding entry is “no binding”.

Another assay concerns the target His6-YrbE1B (M. smegmatis) (UniProt A0QNR1). The description is as above.
Turning to Mce1D (from UniProt A0QNR5), the binding result was “binds”.

Take YrbE1A (from UniProt A0QNR0): the binding result is given as “binds”.

In the case of Mce1E (from UniProt A0QNR6), the binding result is recorded as “binds”.

Consider Mce1A (from UniProt A0QNR2), for which the binding entry is “binds”.

Take MceG (from UniProt A0QS64): the binding entry is “binds”.

Regarding MSMEG_5818 (from UniProt A0R4F8), the binding entry is listed as “no binding”.

As to Mce1F (from UniProt A0QNR7), the binding entry is “binds”.

For the molecule Mce1B (from UniProt A0QNR3), the binding entry is given as “binds”.

In the case of Mce1C (from UniProt A0QNR4), the binding entry is “binds”.

B2: the binding result is “binds”.

Take B1: the binding entry is listed as “binds”.
